Assay results from patent US20260234187A1, “ANTIMICROBIAL PEPTIDES” (MATERIAS S.R.L., priority 2020, published 2026).
Not every detail of the peptide structures is certain; ends, links or a residue may be inferred. Where no end group is shown, it is not given here.

Columns and labels:
Listeria = assay: bactericidal activity at 15 μM, CFU versus control; type: cell-based
Description: (§1) The bactericidal activity of further AMP peptides according to the invention, in particular of the RiLK31 peptide (RLRWVKIWKK, SEQ ID NO:31) and the RiLK3 peptide (RLRWVRIWRR, SEQ ID NO:3), was tested. The bactericidal activity was expressed as a percentage of viable cells in terms of CFU (Colony Forming Units) in a bacterial sample exposed to each peptide compared to those in a control bacterial sample in the absence of the peptide. All tests were carried out with the same peptide concentration, corresponding to 15 μM.

Staphylococcus = assay: bactericidal activity at 15 μM, CFU versus control; type: cell-based
Description: as §1

**Q.** RLRWVKIWKK-NH2 [RiLK31, RLRWVKIWKK] was tested. Which bactericidal activity (Listeria) did it give?
**A.** The bactericidal activity was 98.8%.

**Q.** And the bactericidal activity (Staphylococcus)?
**A.** Its bactericidal activity is 83%.

**Q.** RLRWVRIWRR-NH2 [RiLK3, RLRWVRIWRR] was tested. Which bactericidal activity (Listeria) did it give?
**A.** The bactericidal activity was 99%.

**Q.** What about the bactericidal activity (Staphylococcus) of the same substance?
**A.** Its bactericidal activity is 96%.
